Values quoted from earlier work in patent publication US20080268043A1, “Controlled Release Compositions Comprising an Antipsychotic Agent” (ELAN PHARMA INTERNATIONAL LIMITED, priority 2005, published 2008).
Where a name gives a salt, the structure may show the parent alone.

Key:
adrenergic α1 receptors = settings: read-out: IC50 adrenergic α1 receptors; receptors in the brain
adrenergic α2 receptors = settings: read-out: IC50 adrenergic α2 receptors; receptors in the brain

OCCOCCN1CCN(C2=Nc3ccccc3Sc3ccccc32)CC1 [Quetiapine fumarate, 2-[2-(4-dibenzo[b,f] [1.4]thiazepin-11-yl-1-piperazinyl)ethoxy]-ethanol fumarate (2:1) (salt)]
IC50 (adrenergic α1 receptors): 94 nM | IC50 (adrenergic α2 receptors): 271 nM
